Assay results as given in US7244743B2, “Non-peptidic BRS-3 agonists” (Solvay Pharmaceuticals GmbH, priority 2002, dated 2007).
Some entries share one result that the patent states for a list of compounds.

Target: T1, human BRS-3 (subtype 3 of the human bombesin receptor) (Homo sapiens, UniProt P32247)
T1 construct: expressed in transfected cells; host or cells: CHO-K1 cells, stably transfected with RD-HGA16 (human Gα16) and pcDNA3.1(-)-BRS-3; single-cell clone selected
T1 sequence (P32247 1-399): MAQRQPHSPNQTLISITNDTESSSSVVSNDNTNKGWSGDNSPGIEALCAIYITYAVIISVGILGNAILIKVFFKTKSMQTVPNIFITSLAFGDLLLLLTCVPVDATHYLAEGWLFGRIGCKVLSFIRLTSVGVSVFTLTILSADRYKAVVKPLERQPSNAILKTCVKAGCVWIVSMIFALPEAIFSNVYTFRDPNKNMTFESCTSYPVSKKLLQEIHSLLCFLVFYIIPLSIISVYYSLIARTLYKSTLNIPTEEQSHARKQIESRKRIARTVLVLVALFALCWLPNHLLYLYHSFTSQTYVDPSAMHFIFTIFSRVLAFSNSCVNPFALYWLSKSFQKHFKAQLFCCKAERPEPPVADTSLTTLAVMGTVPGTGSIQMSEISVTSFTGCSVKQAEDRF
Assay: FLIPR test: agonistic activity on BRS-3 (Ca2+ fluorescence, Fluo4) in transfected CHO cells
Assay type: cell-based
Details: CHO-K1 cells co-expressing human BRS-3 and human Gα16; 50% activation relative to maximum response of nonapeptide [D-Phe6,β-Ala11,Phe13,Nle14]Bn(6-14) (=100%)
From the text: For this, CHO cells (=“Chinese hamster ovary cells”) initially were transfected in known manner with an expression vector for the subtype 3 of the human bombesin receptor, i.e. BRS-3.
The cDNA of the human BRS-3 (nucleotide sequence under GenBank Accession No. L08893) was excised from the plasmid vector pGEM4 (from Promega, USA) using the restriction endonuclease EcoRI and was subcloned into the expression vector pcDNA3.1(−) (from Invitrogen, USA). CHO-K1 cells, which were already stably transfected with the expression vector RD-HGA16, which bears the cDNA sequence of the human Gα16 protein (nucleotide sequence under GenBank Accession No. M63904), were placed in sample plates with 24 sample wells (“24-well plate”) and incubated overnight under sterile conditions in an air-humidified incubator at 37° C. and 5% CO2 in F-12 medium plus Glutamax-I (from GibcoBRL, cat. No. 31765), to which 10%-strength foetal calf serum (inactivated at 56° C. for 1 h, from GibcoBRL), 25 μg/ml gentamicin (from GibcoBRL) and 0.2 mg/ml hygromycin B (from GibcoBRL) had been added. The next day, the cells were transfected with the BRS-3 expression vector by adding, using the “Effectene Transfection Reagent” (from Qiagen), 12 μl of a solution containing 0.3 μg/μl DNA of the expression vector per sample well. One day after transfection, the culture medium was replaced by selection medium. For this, the transfected cells, which each simultaneously express BRS-3 and the human Gα16 protein, were cultivated under sterile conditions at 37° C. and 5% CO2 in F-12 medium plus Glutamax-I (from GibcoBRL, cat. No. 31765), to which 10%-strength foetal calf serum (inactivated at 56° C. for 1 h, from GibcoBRL), 25 μg/ml gentamicin (from GibcoBRL), 0.2 mg/ml hygromycin B (from GibcoBRL) and 0.5 mg/ml geneticin (from GibcoBRL) had been added. To optimize the cell test, the cells with the highest receptor expression rate were selected. For this, the transfected cells were diluted 1:30,000 with the selection medium described above and were placed in sample plates with 96 sample wells (“96-well plate”). The cells were incubated overnight at 37° C. and 5% CO2, then those sample wells which contained only an individual cell were selected. These cells were first started in sample plates with 24 sample wells (“24-well plate”) and then cultivated in Costar plastic flasks (first 25 ml and then 225 ml). The BRS-3 receptor expression of the respective individual cell clone was estimated by determination of the EC50 value of the synthetic nonapeptide [D-Phe^6,β-Ala^11,Phe^13,Nle^14]Bn(6-14) as ligand (for performance of the test see below). The transfected cells were stored at −80° C. in aliquots of 1.8 ml medium each with 10% dimethyl sulfoxide (=DMSO) (cell concentration 1×10^6 cells/ml). For cultivation, a frozen aliquot was heated to 37° C., transferred into a Costar plastic flask (225 ml) and diluted with 50 ml of the selection medium described above. The medium was first changed once after 30 minutes' incubation. On each following first to third day, the medium was removed, the adherent cells (40-95% confluence) were washed with PBS Dulbecco's (from GibcoBRL) and detached from the bottom of the flask by a 2-minute treatment with trypsin-EDTA solution (from GibcoBRL) at 37° C. If the cells were to be cultivated further, they were transferred into a new plastic flask with fresh medium. If experiments were to be carried out with the cells, the cells were transferred into Costar sample plates with 96 sample wells, a clear baseplate and cover (“Costar 96-well assay plates”, from Coming), once the cell concentration had been set to 1.2×10^4 cells/ml.
BRS-3 is coupled via G-proteins to the Ca^2+-signal transduction path of the CHO cell. If an agonist binds to the receptor, the phospholipase C is activated via the G-protein, and then in turn catalyses the synthesis of water-soluble inositol phosphates. […]

Structure (SMILES)	EC50
CC(NC(=O)Cc1cc2ccccc2[nH]1)C(=O)NC(Cc1c[nH]c2ccccc12)C(=O)NCCc1ccccc1 (centres unmarked) [Example 20]	≤ 710 nM
CC(NC(=O)Cc1ccc(Cl)cc1)C(=O)NC(Cc1c[nH]c2ccccc12)C(=O)NCCc1ccccc1 (centres unmarked) [Example 16]	≤ 710 nM
O=C(CN1CCN(Cc2ccccc2)CC1)NC(Cc1c[nH]c2ccccc12)C(=O)NCCc1ccccc1 (centres unmarked) [Example 34]	≤ 710 nM
CC(NCc1ccccc1)C(=O)NC(Cc1c[nH]c2ccccc12)C(=O)NCCc1ccccc1 (centres unmarked) [Example 25]	≤ 710 nM
CC(NC(=O)CC1NCCc2ccccc21)C(=O)NC(Cc1c[nH]c2ccccc12)C(=O)NCCc1ccccc1 (centres unmarked) [Example 17]	≤ 710 nM
O=C(NNCc1ccccc1)NC(Cc1c[nH]c2ccccc12)C(=O)NCCc1ccccc1 (centres unmarked) [Example 31]	≤ 710 nM
O=C(NN=Cc1ccccc1)NC(Cc1c[nH]c2ccccc12)C(=O)NCCc1ccccc1 (centres unmarked) [Example 33]	≤ 710 nM
O=C(CC1NCCc2ccccc21)NNC(=O)NC(Cc1c[nH]c2ccccc12)C(=O)NCCc1ccccc1 (centres unmarked) [Example 29]	≤ 710 nM
NC(=O)CCC(NC(=O)CCc1ccc(Cl)cc1)C(=O)NC(Cc1c[nH]c2ccccc12)C(=O)NCCc1ccccc1 (centres unmarked) [Example 14]	≤ 710 nM
NC(=O)CCC(NC(=O)CC1NCCc2ccccc21)C(=O)NC(Cc1c[nH]c2ccccc12)C(=O)NCCc1ccccc1 (centres unmarked) [Example 13]	≤ 710 nM
O=C(NNCc1ccco1)NC(Cc1c[nH]c2ccccc12)C(=O)NCCc1ccccc1 (centres unmarked) [Example 32]	≤ 710 nM
